According to paper PMC7801519:
These are yes or no findings as the source states them, for the method shown. Binding seen in cells or lysates may run through a third protein. A result given as binding can be weak or reduced; the word gives no strength. Sequences can lack the tags named with a protein.

Molecular target: T1, Flag-PBK (human) (UniProt Q96KB5)
T1 sequence: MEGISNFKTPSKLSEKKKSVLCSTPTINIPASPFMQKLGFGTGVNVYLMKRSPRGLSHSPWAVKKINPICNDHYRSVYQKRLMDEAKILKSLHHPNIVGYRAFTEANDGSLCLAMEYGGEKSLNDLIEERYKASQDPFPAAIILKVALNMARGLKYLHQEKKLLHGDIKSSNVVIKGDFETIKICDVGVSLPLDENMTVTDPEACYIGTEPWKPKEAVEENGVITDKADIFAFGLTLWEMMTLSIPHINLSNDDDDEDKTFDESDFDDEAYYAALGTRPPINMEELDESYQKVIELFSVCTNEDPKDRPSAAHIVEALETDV
Experiment: co-IP; 293T cells co-transfected with Myc-MSL1 and vector, Flag-GFP or Flag-PBK for 36 h; IP lysis buffer (50 mM Tris-Cl pH 7.4, 150 mM NaCl, 0.5% NP-40, 5 mM EDTA); antibodies or Flag-beads overnight at 4 °C; immunoblotting

- binding: binds
Substance: Myc-MSL1 (human)
